The values below come from CN109096396A.

Chains of the proteins cited; added tags and fusions are not shown.
UniProt Q9NZQ7: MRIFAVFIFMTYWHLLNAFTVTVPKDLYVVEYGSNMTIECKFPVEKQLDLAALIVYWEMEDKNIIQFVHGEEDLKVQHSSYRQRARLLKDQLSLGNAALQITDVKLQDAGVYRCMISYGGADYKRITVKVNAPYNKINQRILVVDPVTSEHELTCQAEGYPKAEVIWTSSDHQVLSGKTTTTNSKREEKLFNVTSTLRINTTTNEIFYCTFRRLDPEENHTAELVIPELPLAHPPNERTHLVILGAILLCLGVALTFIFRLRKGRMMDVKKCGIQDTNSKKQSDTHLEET

No constants are given. Whether binding was seen depends on the method and setting. Some binding calls cover weakened binding; strength is not graded here.

The experiment concerns the target hPD-L1(ECD)-Fc (human) (UniProt Q9NZQ7). The experiment is described as follows: ELISA of crude periplasmic extract on coated antigen, anti-HA detection; positive clone = OD more than 3 times the control well.

B1: PD-L1纳米抗体 Nb43 (VHH, not shown: small tags and cut ends)
VHH: QVQLQESGGGSVQAGGSLRLSCAASRFTASMGWFRQAPGKEREGIATVSGAASTNYADSVRGRFTISKDNAKNTLYLQINSLKPEDTAVYYCAADDDYYAFLSRGARDFRYWGQGTQVTVSS
With B1, the binding entry is “binds”.
